Laboratory results: the supplement of paper PMC10338343
± gives the standard deviation. The list shows a part of the results, in another mix than the full data. The uncertainty is large for many entries.

Key:
[1] = tested on: MILI (PIWIL2) piRISC loaded with L1MC piRNA (26 nt); test: pre-steady-state target cleavage rate (min^-1); MIWI and MILI are mouse PIWI proteins and EfPiwi is from a freshwater sponge; tags in brackets are library labels; higher = faster piRNA-guided slicing of the target; conditions: guide: L1MC piRNA 5'p-UAACUAAAUACUAUGCAAGCUGUAGG
Outline: (§1)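 Cleave-'n-Seq measured uncleaved targets by sequencing after a transcribed, DNA-blocked target RNA library […] was mixed with 1 nM active affinity-purified piRISC holding one synthetic guide, with or without 500 nM GTSF1 partner protein, at 33 °C in HEPES–potassium acetate buffer for 0–8 or 0–960 min. Counts were normalised to depth and to weakly complementary targets, three trials were pooled, and k3 was capped at 0.0001 min^-1. A burst-and-steady-state fit gave the pre-steady-state cleavage rate.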

[2] = tested on: MIWI (PIWIL1) piRISC loaded with L1MC piRNA (30 nt); test: as above; conditions: guide: L1MC piRNA 5'p-UAACUAAAUACUAUGCAAGCUGUAGGUCCU
Outline: as §1

[3] = auxiliary factor: none (no GTSF1)
[4] = auxiliary factor: 500 nM mouse GTSF1
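Further: 1 nM active piRISC with 0.1 nM target library at 33 °C single turnover.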

Row | Sequence | pre-steady-state target cleavage rate [1, 3] | pre-steady-state target cleavage rate [2, 4] | pre-steady-state target cleavage rate [2, 3] | pre-steady-state target cleavage rate [1, 4]
1 | UCCUGGAUGUCGAACCAUUGUAUAUAGUUA | 0.000404 ± 0.015 | < 0.0001 |  | 
2 | UCCUGGUACAGCUUGCACUAGUAUUUAGUUA | 0.00202 ± 0.0043 |  | 0.00141 ± 0.0057 | 
3 | UCCUCCUACAGCAACCAUAGUAUUUAGUAA | 0.00218 ± 0.0027 |  | 0.000951 ± 0.0056 | 
4 | UCCUGGAUGUCGAACGUAAGUUAUUAGUUA | 0.000235 ± 0.021 | 0.000126 ± 0.029 |  | 
5 | UCCUGGAUGUCGAACCAUAGAUAUUUAGUUA | 0.000118 ± 0.04 |  | 0.000383 ± 0.014 | 
6 | UCCUGGAACAGCUUGCAUACAUUUUAGUUA | 0.00149 ± 0.0052 |  | 0.000261 ± 0.016 | 
7 | UCCUCCUACAGCUUGCAUUCAAUUUUCAAA | 0.000937 ± 0.0049 |  | 0.000635 ± 0.0092 | 
8 | UCCUGGAUGUCGAAGCAUAGUAUUUAGCUUA | 0.00109 ± 0.0045 |  | 0.000524 ± 0.011 | 
9 | UCCUGGAUGUCGAACCAUAGUAUUUACAUA |  | 0.000187 ± 0.024 |  | 0.000289 ± 0.015
10 | UCCUGGAUGUCGAACCAUACUAUUUAGUAA | 0.00024 ± 0.016 |  | 0.000316 ± 0.012 | 
11 | UCCUGGAUGUCCUUGCAUAGUAAAAAGUUA | 0.00227 ± 0.0038 |  | 0.00105 ± 0.0061 | 
12 | UCCUGGAUGUCGAUGCAUAGUAUAAUCAAA [g8:g17:cont:t1A] | 0.000578 ± 0.0079 |  | 0.000416 ± 0.018 | 
13 | UCCUGGAUGAGCUUGCAUAGUAAUUAGAAA | 0.00118 ± 0.0053 |  | 0.00263 ± 0.0046 | 
14 | UCCUGGAUGUCGAACCAUAGUAUUAUCUUA | 0.000189 ± 0.02 |  | 0.000258 ± 0.026 | 
